# Results taken from publication PMC8481291 (Nature Communications, 2021).
# The chains behind the UniProt entries cited, without tags or fusion partners. Residues count along the entry.
# UniProt Q7CNU3, residues 23-367: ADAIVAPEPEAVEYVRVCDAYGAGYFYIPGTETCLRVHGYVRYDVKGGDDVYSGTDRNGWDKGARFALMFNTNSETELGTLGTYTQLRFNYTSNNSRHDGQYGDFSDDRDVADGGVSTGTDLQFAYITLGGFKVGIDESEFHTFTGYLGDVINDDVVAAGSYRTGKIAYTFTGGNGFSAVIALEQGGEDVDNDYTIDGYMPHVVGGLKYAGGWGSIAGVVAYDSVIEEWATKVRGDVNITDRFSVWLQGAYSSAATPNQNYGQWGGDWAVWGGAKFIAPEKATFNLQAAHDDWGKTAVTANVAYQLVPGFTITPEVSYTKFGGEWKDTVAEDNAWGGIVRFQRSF
# No constants are given. Whether binding was seen depends on the method and setting.
# Key:
# [1] = target: Omp2a (Brucella melitensis) (UniProt Q7CNU3); test: AUC; both purified
# [2] = target: Omp2a (Brucella melitensis) (UniProt Q7CNU3); test: SEC; both purified
substance,measurement,setting,value
Omp2a (from UniProt Q7CNU3 23-367),binding,[1],no binding (condition: Omp2a folded without tES)
same,binding,[2],no binding (condition: Omp2a folded without tES)
